Measured values published in the supplement of paper PMC12067093, “Discovery and optimisation of a covalent ligand for TRIM25 and its application to targeted protein ubiquitination” (Chemical Science, 2025).
This is one part of the list.

By UniProt entry, the sequences of proteins in these tests, tags left out. Where a name states a change or a piece, a line headed by the entry shows the natural chain unless it says otherwise.
UniProt O75147: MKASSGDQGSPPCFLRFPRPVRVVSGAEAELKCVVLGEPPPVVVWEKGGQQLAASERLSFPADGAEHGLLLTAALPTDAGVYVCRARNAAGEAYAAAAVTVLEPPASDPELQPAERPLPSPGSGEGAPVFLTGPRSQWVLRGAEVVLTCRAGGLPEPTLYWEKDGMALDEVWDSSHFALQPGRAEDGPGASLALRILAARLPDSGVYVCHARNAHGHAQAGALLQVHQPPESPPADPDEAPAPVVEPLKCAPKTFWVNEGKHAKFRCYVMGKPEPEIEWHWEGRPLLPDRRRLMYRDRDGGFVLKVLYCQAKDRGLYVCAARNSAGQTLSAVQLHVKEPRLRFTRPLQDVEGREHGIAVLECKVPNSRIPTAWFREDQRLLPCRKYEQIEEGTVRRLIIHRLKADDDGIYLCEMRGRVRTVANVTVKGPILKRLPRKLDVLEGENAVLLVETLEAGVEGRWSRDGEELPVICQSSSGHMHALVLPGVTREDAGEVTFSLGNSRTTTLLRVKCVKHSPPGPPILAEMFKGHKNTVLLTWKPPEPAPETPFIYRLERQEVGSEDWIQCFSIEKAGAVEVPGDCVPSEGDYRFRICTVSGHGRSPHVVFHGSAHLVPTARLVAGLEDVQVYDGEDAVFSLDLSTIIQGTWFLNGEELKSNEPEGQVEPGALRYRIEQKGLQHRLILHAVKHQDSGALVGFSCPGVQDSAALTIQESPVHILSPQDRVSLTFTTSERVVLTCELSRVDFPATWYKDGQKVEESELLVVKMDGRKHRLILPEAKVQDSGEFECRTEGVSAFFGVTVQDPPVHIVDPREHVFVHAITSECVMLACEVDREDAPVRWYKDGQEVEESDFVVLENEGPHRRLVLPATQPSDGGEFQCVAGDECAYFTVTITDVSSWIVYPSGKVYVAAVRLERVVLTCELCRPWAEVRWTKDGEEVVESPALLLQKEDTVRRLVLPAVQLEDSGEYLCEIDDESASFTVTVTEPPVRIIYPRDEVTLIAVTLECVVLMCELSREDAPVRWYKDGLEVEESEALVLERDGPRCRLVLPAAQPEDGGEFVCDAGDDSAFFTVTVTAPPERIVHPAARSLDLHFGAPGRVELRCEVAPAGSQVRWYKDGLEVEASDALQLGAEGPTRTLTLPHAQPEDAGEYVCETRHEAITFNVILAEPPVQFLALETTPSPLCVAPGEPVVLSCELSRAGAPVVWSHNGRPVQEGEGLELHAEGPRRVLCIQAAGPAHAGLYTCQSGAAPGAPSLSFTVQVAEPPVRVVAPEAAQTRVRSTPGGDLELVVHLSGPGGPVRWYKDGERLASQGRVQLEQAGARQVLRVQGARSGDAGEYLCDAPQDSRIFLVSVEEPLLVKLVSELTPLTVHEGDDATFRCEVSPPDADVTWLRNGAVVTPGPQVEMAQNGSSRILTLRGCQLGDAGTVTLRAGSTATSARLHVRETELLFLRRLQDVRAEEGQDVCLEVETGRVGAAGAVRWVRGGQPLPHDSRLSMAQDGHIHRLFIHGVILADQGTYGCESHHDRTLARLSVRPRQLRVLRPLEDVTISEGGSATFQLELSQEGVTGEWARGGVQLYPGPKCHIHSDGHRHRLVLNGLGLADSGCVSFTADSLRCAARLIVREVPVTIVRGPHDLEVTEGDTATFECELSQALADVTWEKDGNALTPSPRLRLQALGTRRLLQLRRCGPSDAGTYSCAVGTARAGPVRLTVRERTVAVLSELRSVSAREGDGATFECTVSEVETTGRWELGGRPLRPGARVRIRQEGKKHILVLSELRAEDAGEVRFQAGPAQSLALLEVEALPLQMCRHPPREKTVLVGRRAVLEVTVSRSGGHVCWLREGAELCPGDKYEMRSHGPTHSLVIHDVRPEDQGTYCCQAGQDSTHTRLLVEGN
UniProt Q8WV74: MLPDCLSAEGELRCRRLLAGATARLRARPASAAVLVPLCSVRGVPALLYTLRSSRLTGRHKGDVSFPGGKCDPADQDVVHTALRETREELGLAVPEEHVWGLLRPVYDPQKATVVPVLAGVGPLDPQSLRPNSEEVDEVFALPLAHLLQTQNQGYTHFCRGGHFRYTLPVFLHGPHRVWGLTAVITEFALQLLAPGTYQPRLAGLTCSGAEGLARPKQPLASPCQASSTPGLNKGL
UniProt P49757: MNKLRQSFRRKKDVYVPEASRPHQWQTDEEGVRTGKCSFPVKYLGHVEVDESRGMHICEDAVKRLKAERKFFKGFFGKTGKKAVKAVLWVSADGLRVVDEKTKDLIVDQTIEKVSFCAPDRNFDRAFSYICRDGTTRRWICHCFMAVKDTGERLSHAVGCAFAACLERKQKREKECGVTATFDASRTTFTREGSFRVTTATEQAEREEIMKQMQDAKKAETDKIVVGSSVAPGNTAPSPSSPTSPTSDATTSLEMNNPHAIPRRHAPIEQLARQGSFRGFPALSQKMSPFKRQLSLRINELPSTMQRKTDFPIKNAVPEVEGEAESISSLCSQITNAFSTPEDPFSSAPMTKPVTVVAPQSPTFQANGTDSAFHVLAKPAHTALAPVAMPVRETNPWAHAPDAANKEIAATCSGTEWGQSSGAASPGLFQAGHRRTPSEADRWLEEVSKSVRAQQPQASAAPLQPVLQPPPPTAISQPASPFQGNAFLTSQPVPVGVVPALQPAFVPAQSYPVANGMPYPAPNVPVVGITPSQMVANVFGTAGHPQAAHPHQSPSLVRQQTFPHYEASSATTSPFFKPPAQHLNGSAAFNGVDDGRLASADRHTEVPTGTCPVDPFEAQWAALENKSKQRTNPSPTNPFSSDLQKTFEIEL
UniProt Q9H4D5: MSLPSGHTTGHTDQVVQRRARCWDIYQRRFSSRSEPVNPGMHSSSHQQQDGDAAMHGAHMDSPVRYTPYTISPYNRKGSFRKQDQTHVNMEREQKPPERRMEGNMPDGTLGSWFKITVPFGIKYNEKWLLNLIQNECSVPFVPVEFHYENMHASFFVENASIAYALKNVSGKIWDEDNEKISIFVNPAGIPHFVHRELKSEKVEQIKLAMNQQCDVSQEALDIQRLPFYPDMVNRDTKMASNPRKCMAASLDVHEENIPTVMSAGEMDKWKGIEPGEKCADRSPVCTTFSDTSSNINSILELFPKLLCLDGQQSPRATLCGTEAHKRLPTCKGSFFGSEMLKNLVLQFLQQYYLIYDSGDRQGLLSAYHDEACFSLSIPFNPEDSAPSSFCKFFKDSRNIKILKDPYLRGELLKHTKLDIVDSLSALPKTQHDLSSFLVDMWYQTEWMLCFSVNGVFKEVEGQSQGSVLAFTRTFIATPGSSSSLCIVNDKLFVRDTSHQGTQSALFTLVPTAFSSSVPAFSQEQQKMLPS
UniProt O60502: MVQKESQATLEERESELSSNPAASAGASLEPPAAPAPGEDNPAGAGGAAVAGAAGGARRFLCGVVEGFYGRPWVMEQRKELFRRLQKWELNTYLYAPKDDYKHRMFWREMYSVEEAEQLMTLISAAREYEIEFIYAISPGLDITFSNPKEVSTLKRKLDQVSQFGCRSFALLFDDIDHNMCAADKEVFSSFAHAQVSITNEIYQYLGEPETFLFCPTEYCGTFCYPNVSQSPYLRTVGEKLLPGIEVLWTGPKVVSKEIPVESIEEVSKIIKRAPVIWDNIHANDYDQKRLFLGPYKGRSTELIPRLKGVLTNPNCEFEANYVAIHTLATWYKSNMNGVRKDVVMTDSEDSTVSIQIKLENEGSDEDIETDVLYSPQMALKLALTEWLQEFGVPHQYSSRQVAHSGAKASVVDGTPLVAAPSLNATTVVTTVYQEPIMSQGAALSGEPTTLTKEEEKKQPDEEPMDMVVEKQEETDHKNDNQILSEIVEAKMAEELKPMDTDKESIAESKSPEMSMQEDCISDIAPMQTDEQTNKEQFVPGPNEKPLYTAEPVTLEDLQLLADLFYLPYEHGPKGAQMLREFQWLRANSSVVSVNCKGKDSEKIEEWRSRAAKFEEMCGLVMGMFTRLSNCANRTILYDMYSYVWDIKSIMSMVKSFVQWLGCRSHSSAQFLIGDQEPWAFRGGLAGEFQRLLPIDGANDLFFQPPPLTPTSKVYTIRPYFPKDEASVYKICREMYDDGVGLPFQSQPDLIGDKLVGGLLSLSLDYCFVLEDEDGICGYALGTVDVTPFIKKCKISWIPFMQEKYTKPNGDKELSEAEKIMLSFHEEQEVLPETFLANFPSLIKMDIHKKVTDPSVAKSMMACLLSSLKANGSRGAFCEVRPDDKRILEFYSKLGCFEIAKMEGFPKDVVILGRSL
UniProt Q56VL3: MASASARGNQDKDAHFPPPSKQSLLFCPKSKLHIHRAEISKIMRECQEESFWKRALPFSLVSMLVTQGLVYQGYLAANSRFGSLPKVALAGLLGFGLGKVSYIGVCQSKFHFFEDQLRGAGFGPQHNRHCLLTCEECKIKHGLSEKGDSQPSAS
UniProt Q9UKX7: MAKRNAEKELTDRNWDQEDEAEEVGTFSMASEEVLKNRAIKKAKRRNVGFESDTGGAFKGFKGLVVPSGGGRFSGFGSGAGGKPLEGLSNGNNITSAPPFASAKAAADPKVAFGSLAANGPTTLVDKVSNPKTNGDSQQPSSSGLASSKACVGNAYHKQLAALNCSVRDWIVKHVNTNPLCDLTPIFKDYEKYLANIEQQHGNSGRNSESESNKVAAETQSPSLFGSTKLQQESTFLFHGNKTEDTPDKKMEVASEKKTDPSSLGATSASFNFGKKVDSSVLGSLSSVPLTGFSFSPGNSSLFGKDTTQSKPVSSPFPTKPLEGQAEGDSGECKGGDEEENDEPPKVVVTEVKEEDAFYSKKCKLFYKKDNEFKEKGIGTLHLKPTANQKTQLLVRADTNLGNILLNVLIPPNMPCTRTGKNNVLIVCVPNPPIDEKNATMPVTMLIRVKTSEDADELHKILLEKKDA
UniProt Q01968: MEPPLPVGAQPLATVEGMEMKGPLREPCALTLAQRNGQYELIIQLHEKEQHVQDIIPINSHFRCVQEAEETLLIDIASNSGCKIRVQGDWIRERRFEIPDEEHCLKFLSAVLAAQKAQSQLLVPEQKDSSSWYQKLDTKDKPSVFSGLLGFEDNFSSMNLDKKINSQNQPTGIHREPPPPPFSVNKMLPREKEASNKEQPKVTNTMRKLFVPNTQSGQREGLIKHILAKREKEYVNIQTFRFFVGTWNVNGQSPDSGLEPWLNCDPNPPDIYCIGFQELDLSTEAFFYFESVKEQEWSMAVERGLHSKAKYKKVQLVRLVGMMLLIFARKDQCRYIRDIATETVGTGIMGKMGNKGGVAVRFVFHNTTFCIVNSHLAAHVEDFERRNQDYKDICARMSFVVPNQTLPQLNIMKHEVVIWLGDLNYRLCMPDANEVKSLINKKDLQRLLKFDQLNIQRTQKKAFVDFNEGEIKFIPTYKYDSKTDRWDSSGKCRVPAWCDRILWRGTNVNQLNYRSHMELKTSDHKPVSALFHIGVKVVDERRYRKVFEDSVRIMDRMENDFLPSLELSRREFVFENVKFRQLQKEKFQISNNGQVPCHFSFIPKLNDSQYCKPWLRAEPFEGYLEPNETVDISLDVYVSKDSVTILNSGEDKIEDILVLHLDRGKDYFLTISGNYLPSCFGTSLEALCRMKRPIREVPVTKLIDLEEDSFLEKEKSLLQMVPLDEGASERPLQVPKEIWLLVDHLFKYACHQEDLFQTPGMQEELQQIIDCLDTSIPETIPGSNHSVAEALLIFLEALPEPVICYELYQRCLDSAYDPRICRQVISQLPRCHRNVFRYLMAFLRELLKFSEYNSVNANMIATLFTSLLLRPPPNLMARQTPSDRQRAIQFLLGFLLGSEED
UniProt Q8TB37: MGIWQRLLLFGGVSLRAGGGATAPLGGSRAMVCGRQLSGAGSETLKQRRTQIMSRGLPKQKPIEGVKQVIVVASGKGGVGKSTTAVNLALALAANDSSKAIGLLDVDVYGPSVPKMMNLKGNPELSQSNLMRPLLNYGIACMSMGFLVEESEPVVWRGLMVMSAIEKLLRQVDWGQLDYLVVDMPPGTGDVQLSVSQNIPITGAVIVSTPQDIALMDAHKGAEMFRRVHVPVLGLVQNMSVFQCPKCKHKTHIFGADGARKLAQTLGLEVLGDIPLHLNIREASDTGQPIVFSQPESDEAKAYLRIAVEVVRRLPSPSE
UniProt Q6PK18: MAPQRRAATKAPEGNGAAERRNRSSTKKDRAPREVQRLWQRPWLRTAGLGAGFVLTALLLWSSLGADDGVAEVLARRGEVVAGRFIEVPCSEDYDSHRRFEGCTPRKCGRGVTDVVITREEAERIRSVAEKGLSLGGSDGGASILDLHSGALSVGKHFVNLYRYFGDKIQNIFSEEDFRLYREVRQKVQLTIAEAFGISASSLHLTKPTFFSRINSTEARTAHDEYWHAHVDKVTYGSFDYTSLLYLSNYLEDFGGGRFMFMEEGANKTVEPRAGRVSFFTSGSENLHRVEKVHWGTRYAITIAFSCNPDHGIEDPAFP

The targets below were run with CC1Cc2ccccc2N1C(=O)C1CCCN(C1)C(=O)CCl (mixture of isomers) [TRIM25 ligand 11 (diastereomer mixture)] (assay: probe-labelled cysteine peptide fold change vs DMSO (competition) (log2 fold change); higher = less target engagement (more negative = stronger competition)). Conditions: 10 µM; THP-1; incubation time: 4 h.
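Also: competitive chemoproteomic profiling in live THP-1 cells with an iodoacetamide desthiobiotin (IA-DTB) probe, comparing probe-labelled peptide intensities in compound-treated cells against DMSO-treated controls.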

Target	probe-labelled cysteine peptide fold change
OBSL1_O75147_362_EHGIAVLECK (UniProt O75147)	-0.0165
NUDT8_Q8WV74_71_CDPADQDVVHTALR (UniProt Q8WV74)	0.0494
NUP160_Q12769_369_RGQFCIFQLVSTESNR (UniProt Q12769)	0.339
NUMB_P49757_58_GMHICEDAVK (UniProt P49757)	0.0145
NUMA1_Q14980-4_1729_SREPQAKPQLDLSIDSLDLSCEEGTPLSITR (UniProt Q14980)	-0.128
NXF3_Q9H4D5_214_LAMNQQCDVSQEALDIQR (UniProt Q9H4D5)	0.175
NUP160_Q12769_303_GDQSPSDRPLSLAVHCVEHDAFIFALCQDHK (UniProt Q12769)	0.212
OGA_O60502_863_SMMACLLSSLK (UniProt O60502)	-0.0745
OCIAD2_Q56VL3_46_ECQEESFWK (UniProt Q56VL3)	0.0208
NUP50_Q9UKX7_416_ADTNLGNILLNVLIPPNMPCTR (UniProt Q9UKX7)	-0.223
NUDT21_O43809_144_QDGVLQDWVIDDCIGNWWRPNFEPPQYPYIPAHITKPK (UniProt O43809)	0.0645
OCRL_Q01968_611_LNDSQYCKPWLR (UniProt Q01968)	-0.48
NUBPL_Q8TB37_244_VHVPVLGLVQNMSVFQCPK (UniProt Q8TB37)	0.0863
OCRL_Q01968_370_FVFHNTTFCIVNSHLAAHVEDFER (UniProt Q01968)	0.316
OGFOD3_Q6PK18_103_RFEGCTPR (UniProt Q6PK18)	-0.0988
